Measurements reported in publication PMC8112863.
These are yes or no findings as the source states them, for the method shown. In cells and extracts the contact can be indirect. A yes stands for co-enrichment or nearness to the bait. Other partners may have been found.

The chains behind the UniProt entries cited, without tags or fusion partners.
UniProt Q9NRX1: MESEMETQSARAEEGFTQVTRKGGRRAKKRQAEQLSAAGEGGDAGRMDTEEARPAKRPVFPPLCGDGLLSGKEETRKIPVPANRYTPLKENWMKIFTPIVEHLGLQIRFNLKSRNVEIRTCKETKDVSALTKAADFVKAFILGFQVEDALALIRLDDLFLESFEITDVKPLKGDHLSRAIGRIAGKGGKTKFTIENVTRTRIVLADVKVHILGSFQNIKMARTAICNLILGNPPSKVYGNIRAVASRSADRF
UniProt Q9Y5T5: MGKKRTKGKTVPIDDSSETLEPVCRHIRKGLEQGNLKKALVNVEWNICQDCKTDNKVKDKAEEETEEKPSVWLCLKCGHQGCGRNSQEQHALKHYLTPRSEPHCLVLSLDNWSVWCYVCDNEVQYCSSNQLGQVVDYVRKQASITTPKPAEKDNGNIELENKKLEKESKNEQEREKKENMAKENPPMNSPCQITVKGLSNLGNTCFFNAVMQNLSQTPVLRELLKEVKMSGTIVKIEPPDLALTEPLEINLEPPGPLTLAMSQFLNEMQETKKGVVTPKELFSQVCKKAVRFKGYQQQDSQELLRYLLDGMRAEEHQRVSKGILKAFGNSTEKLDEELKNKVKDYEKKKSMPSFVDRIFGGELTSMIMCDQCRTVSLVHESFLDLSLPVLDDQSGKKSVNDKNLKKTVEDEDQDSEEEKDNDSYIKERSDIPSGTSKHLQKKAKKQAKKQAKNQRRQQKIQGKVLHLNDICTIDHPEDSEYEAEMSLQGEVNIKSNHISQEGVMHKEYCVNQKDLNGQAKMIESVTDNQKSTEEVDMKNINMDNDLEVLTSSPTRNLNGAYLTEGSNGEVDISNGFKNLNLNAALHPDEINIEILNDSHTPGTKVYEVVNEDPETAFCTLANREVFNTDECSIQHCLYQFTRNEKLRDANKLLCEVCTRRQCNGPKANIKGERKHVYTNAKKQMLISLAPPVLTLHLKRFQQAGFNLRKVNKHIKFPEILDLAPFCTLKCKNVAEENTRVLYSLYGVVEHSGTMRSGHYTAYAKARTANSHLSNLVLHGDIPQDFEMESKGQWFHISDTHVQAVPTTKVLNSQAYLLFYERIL

T1: RIO1(kd)-StHA, catalytically inactive RIO1 mutated on aspartic acid 324 (D324A) (human) (UniProt Q9BRS2)
T1 sequence: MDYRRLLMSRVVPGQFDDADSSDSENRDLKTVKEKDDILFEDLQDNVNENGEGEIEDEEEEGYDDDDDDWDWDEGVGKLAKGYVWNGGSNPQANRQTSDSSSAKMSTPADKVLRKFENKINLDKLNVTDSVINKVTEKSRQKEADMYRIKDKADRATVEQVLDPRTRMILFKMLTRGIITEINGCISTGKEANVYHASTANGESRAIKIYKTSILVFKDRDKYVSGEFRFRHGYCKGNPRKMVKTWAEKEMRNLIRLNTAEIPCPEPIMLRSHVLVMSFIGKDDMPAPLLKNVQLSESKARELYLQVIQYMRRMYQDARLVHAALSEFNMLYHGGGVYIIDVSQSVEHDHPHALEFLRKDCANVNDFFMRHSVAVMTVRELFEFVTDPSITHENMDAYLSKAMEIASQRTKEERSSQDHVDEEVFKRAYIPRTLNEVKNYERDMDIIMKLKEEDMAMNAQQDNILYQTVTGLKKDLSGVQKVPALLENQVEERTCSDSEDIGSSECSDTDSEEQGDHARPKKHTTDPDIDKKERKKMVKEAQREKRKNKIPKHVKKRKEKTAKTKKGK

B1: TSR1 (protein, UniProt Q2NL82 1-804)
chain: MAAHRPGPLKQQNKAHKGGRHRGRGSAQRDGKGRLALKTLSKKVRKELSRVDQRHRASQLRKQKKEAVLAEKRQLGGKDGPPHQVLVVPLHSRISLPEAMQLLQDRDTGTVHLNELGNTQNFMLLCPRLKHRWFFTSARPGDLHVVLDMAKVADTILFLLDPLEGWDSTGDYCLSCLFAQGLPTYTLAVQGISGLPLKKQIDTRKKLSKAVEKRFPHDKLLLLDTQQEAGMLLRQLANQKQQHLAFRDRRAYLFAHAVDFVPSEENNLVGTLKISGYVRGQTLNVNRLLHIVGYGDFQMKQIDAPGDPFPLNPRGIKPQKDPDMAMEICATDAVDDMEEGLKVLMKADPGRQESLQAEVIPDPMEGEQTWPTEEELSEAKDFLKESSKVVKKVPKGTSSYQAEWILDGGSQSGGEGDEYEYDDMEHEDFMEEESQDESSEEEEEYETMTIGESVHDDLYDKKVDEEAEAKMLEKYKQERLEEMFPDEVDTPRDVAARIRFQKYRGLKSFRTSPWDPKENLPQDYARIFQFQNFTNTRKSIFKEVEEKEVEGAEVGWYVTLHVSEVPVSVVECFRQGTPLIAFSLLPHEQKMSVLNMVVRRDPGNTEPVKAKEELIFHCGFRRFRASPLFSQHTAADKHKLQRFLTADMALVATVYAPITFPPASVLLFKQKSNGMHSLIATGHLMSVDPDRMVIKRVVLSGHPFKIFTKMAVVRYMFFNREDVLWFKPVELRTKWGRRGHIKEPLGTHGHMKCSFDGKLKSQDTVLMNLYKRVFPKWTYDPYVPEPVPWLKSEISSTVPQGGME
B2: EIF1AD (protein, UniProt Q8N9N8 1-165)
chain: MSQATKRKHVVKEVLGEHIVPSDQQQIVRVLRTPGNNLHEVETAQGQRFLVSMPSKYRKNIWIKRGDFLIVDPIEEGEKVKAEISFVLCKDHVRSLQKEGFWPEAFSEVAEKHNNRNRQTQPELPAEPQLSGEESSSEDDSDLFVNTNRRQYHESEEESEEEEAA
B3: NOB1 (enzyme, UniProt Q9ULX3 1-412)
chain: MAPVEHVVADAGAFLRHAALQDIGKNIYTIREVVTEIRDKATRRRLAVLPYELRFKEPLPEYVRLVTEFSKKTGDYPSLSATDIQVLALTYQLEAEFVGVSHLKQEPQKVKVSSSIQHPETPLHISGFHLPYKPKPPQETEKGHSACEPENLEFSSFMFWRNPLPNIDHELQELLIDRGEDVPSEEEEEEENGFEDRKDDSDDDGGGWITPSNIKQIQQELEQCDVPEDVRVGCLTTDFAMQNVLLQMGLHVLAVNGMLIREARSYILRCHGCFKTTSDMSRVFCSHCGNKTLKKVSVTVSDDGTLHMHFSRNPKVLNPRGLRYSLPTPKGGKYAINPHLTEDQRFPQLRLSQKARQKTNVFAPDYIAGVSPFVENDISSRSATLQVRDSTLGAGRRRLNPNASRKKFVKKR

Biological target: T1, RIO1(kd)-StHA, catalytically inactive RIO1 mutated on aspartic acid 324 (D324A) (human)
Experiment: affinity purification with mass spectrometry; StHA-tagged bait captured from HEK293 lysate on anti-HA affinity gel, washed with TAP buffer (20 mM Tris-HCl pH 7.6, 100 mM KCl, 2 mM MgCl2, 1 mM DTT), label-free nano-LC-MS/MS; for the comparative analysis cells treated with scramble or RPS26 siRNA

binding | Molecule
binds | B1
binds | B2
binds | B3

Biological target: T1, RIO1(kd)-StHA, catalytically inactive RIO1 mutated on aspartic acid 324 (D324A) (human)
Experiment: as above
Remark: another data set of the same source

binding | Molecule
binds | DIM2 (from UniProt Q9NRX1 1-252)
binds | USP16 (from UniProt Q9Y5T5 1-823) (enzyme)
binds | eIF4A (human (endogenous in HEK293))
